This note sets out measurements from PMC6805947.

These are yes or no findings as the source states them, for the method shown. Some binding calls cover weakened binding; strength is not graded here.

The target of this experiment is SlaA (outer S-layer sheath protein of Sulfolobus solfataricus) (S. solfataricus (endogenous in the culture)) (UniProt Q980C7). Description: reassembly of the denatured S-layer protein; S-layer preparation washed free of SlaB, resuspended in 20 mM Na2CO3 pH 10.5, agitated overnight at room temperature until sacculi were no longer visible by light microscopy; Brock medium added to 1x, pH titrated to 3.5 with H2SO4, overnight at 78 °C; aggregates observable; called preliminary data; both purified.

B1: SlaA (outer S-layer sheath protein of Sulfolobus solfataricus) (protein, UniProt Q980C7 36-1231)
chain: AAIYTIPSVTSVSNTSNIVINLFFNATSNSTVGAQASAFNYGLAINYTLDAITFTVVLPSGTSYPLIKLNAKNFANYGYYDLAHNSIVLLLNTTASSTAKELAYSYEQSIGVTPSASYKIYNYTNKTVNVNQYMNELPLSMLIYMATNGKYNNLASLPVGTKLEFTYAGVTYIIAVSPTVKLVGELLNPLYTANSKMLPGTNYAVGRSNITVAVYDNLITTTTSPFNFTLTYSSLAPALIYWFVIANTTYTNNGASTPTASFQAPPFKQYFPSNSTILYSAAPTKSSILMFNGQMNVTAHENVTLTLQTGTNIYTSPNFNVTPPGNYTFSGKLGVGFNGFIYQNGSATLTATIFNGTINFFFSSTGQKAAFTFFLVPIVPINLGDNNGATVIYNGVSLNTGFPQVVVMFNITGNFTKSGSNYLLYGSVYEAELKPLGSTQLQKLAGATDSTQFVGNLISSASSPLVSYFNYGESTTTITGTSLSFTVLMPLKFIVERLGYIYLVTFHIWGPSATVTVTGVDYHGTQIALGSFRAYVALPSFYTLPKTPLVGLTCDNMYTLAQVSDAGSVLETSTANSNANNATVIGPYDLMSNAGLHVAIYNGSKLVKSGNLGLLPNATTAPITTTITLNGQTVALTYSSAPTAIYPVDFKFEPGFSYSVTTNVIYNTSIPTYVVTVYMPLKYILQTKIVMWYVSPDYAAYFYYSSTGQYQTSNVTLTFANVTPELVMPQVFPVGKLYMPFGINDPYYVFYSSISIGPQSGVIEAVENGFNVGNITSITVELNGMNESIVLSPLNVSKLLISSNLGEVSQCSPLFTTTLFNISALASLLGLPNAAALNGSYLYVTYHDIISGAYVTNRTLLVVGQFYVMPPTTPGSVEWILTAKYINATTGIPVEISYAVVQQPSAKVVDINAANASITQIQVTGVKIVSKYATVTVMYNPSNASTIVYMNGMFVASYGGNLISSLSETSTFGVYYGAVVNLYVATGTLSSPNGTMYVVLGSHKVAVGTANLYTYAGYHFGPYTALPLVSNVTFTVQDPVTHATLTGQTTLGAFNNTPIRLAPLGVSIPQTAQYKVFYYYSTPLVLSPTSQYIVLSVTSVISYPYPFYIETVSFLGYNVTTGTPVPGTPAFQTVYSPSLGPGVVLQVPVQSYQFISLSTPSEPHTVVMFAVPFAGGPAISLYPTFLVYANVTAISS
Take B1: the binding result is recorded as “binds”.
